Source: the supplement of paper PMC3334620
Over roughly 33,000 sequences, “E-score (-0.5 to 0.5)” has its median near -0.0034; the highest 2% begin near 0.25. The list shows a part of the results.

Target: T1, Yap3 (UniProt P38749)
T1 sequence: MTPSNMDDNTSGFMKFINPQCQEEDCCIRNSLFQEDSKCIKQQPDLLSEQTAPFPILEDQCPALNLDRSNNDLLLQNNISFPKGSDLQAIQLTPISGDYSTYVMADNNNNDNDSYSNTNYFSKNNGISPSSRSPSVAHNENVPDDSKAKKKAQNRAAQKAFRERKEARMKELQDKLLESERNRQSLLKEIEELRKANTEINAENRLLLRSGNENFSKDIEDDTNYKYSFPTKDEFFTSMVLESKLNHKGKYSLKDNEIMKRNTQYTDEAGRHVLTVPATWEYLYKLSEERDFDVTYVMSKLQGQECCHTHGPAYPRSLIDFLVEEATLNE
Assay: PBM E-score (8-mer binding enrichment) (E-score (-0.5 to 0.5)); higher = stronger / more preferred TF binding
Conditions: protein concentration: 100 nM; construct: GST-full length
How it was run: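 Each ungapped eight-base word and its reverse complement, pooled, received an E-score from the Universal PBM Analysis Suite. Underlying scans, normalised with masliner, recorded fluorescent anti-GST bound to GST-tagged yeast transcription factors. These were applied at about 100-200 nM to universal all-10-mer Agilent arrays double-stranded by primer extension.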

Sequence	PBM E-score
CTTATGGA	-0.0182
ATCAGCGA	0.0403
GCAATATA	0.216
CTAGACCC	-0.151
ATTTCCGA	0.209
TGTTTCAA	0.218
AAGTCTGC	-0.107
AAAGCGCG	-0.00205
CTGGAGTA	-0.0124
CTGTGCGA	0.0309
AAACAGCA	0.163
AACAAAGA	0.174
CTAATCCC	0.0684
CAGGCTGG	-0.188
ATCCCGGC	-0.0697
CTATCGGA	-0.138
AAGCACAC	-0.0786
ACTAATAA	0.303
CGCGTACG	0.152
AGTTCTGC	-0.00524
AAACCTCC	-0.116
AGACCTTG	-0.0663
CGATCTAG	-0.155
ACTCCGAT	-0.0336
ATGGGCTC	-0.188

Sequence	PBM E-score
CGCCCATC	-0.181
GCTACGGA	-0.122
CAACACGC	0.064
CGTGAGTC	-0.117
ACGCCTAA	0.0456
ACCCCCAA	-0.183
AGACTTCG	-0.00102
GGTGTGAC	-0.227
CAACACTC	0.112
CACATAAA	0.17
ATTGATAC	0.224
TAGTCAGA	0.0338
CGCCCATA	-0.0229
GCCGTGTA	0.0141
ACGTCATC	0.152
GCCGACCC	-0.33
ACTGTTGC	0.104
GAGTCAAA	-0.177
AGCTAAGA	0.00844
CCATGGGC	-0.197
CATTCTCG	0.0585
TAGTTAAA	0.158
GGCGGTCA	-0.251
CATGATCC	-0.0797
GCGCCGAA	0.0489

Sequence	PBM E-score
ACCCAGCC	-0.18
CAGAGCCC	-0.115
CCGTGGGA	-0.337
AAAGCCGA	-0.0302
CCTACCTA	-0.143
AGTCCGTG	-0.28
CCTTGACC	-0.0811
GGCGAGAA	0.2
CTGAACTA	-0.101
CGTCGTAG	-0.0554
CGAGCGAA	-0.101
GTCGAGAC	0.0574
TTGCCCAA	-0.00787
AATTGCAG	0.0709
CGTATGTA	0.108
TACTCACA	0.115
ACGGCACG	-0.0633
GAGGGTCC	-0.276
AACTCATG	0.116
CGCTCAGC	-0.121
GAAATGTA	0.16
CGTCTGCA	0.00032
CGAGTGAA	-0.0772
AAAAAGTT	0.0968
GGACATCA	0.0696

Sequence	PBM E-score
TGAATTCA	0.232
AGATGTTA	0.077
CCACGTCA	0.0656
GATCGTGA	-0.0036
AGATATGA	0.219
CAGATACG	0.117
AAACGCCT	-0.153
AATGTAAC	0.122
CCCCGCAC	-0.151
CCAATCCG	0.033
AGGGTCAC	-0.222
GAGGGTTA	-0.126
TAAATGTA	0.173
GGAGAGGA	-0.169
AGCAAATC	0.141
GTCTGAGA	-0.16
CATCTCAA	0.108
GACTTCCA	-0.0885
CTCGAAGA	-0.198
ATCTAGAC	-0.165
TGACCGCA	-0.0776
CAGAATAC	0.173
AAATCTCA	0.142
CTGCGAAC	-0.138
GTTAGGTA	0.194

Sequence	PBM E-score
ATATCGTA	0.128
AAGGACAG	0.00055
ACAGGAGG	-0.217
GCGACGGA	0.0769
ATAGAGCC	-0.12
AATGGAGG	-0.119
AGATATAC	0.0965
GTCTTCAC	-0.11
CTATCAAG	0.067
GGGGCCTA	-0.368
ACAACTAC	0.0726
GTAGTAAA	0.0955
ATCCGCAG	0.147
CGCTATAG	-0.0258
GCACGTAA	0.0393
ACATAATG	0.211
ATAATTAC	0.333
ACGATAAT	0.184
GTCTTCCA	-0.108
ATGTCCGG	-0.133
AGAAACGC	-0.12
AAGGATAA	0.0694
ACCGGCTA	-0.0839
GCTTGACC	-0.0702
GGAAGCGA	-0.0648

Sequence	PBM E-score
AAAGGAGA	-0.055
CCAAGGTA	-0.132
GGCAGGTA	-0.158
CCATGCCG	0.0611
ATATTAGA	0.175
GTGTTAAA	0.0872
AAAGACTC	-0.0985
AAGGATCT	-0.109
CCGGAACG	0.0101
AGCAGGAA	0.059
ATAGACTG	0.0697
CGAAACTC	-0.112
ATCCGAAT	0.238
CTGTGATA	-0.106
TCGAACCA	-0.00191
CGTCGTCA	-0.0331
GAATCATC	-0.108
CATCTGAA	0.054
AGTCAGGC	0.133
GCAAGAGA	-0.136
ACCGATTC	-0.128
GGCGGTTA	-0.0959
GCTCGTAC	0.065
AGCATTAA	0.138
CTGTGGTC	-0.11

Sequence	PBM E-score
CTATCAGA	-0.231
AAACCCCA	-0.029
ACGCGCGC	0.181
CGATATTC	0.0953
AATACATG	0.151
AGGCTGGG	-0.278
ACCTCTAA	-0.0316
TGTATTAA	0.126
ACGACCAG	0.0749
CGCTGTAA	0.1
ACGAACAT	0.149
ACACATTG	0.104
CCGGGACG	-0.285
CATCTCCA	0.0148
TTATACAA	0.198
ATTGACTG	0.0853
ATTTTCGG	0.109
GGCCTCCC	-0.234
ACTCCCAT	0.0179
TGCTTCCA	-0.094
AGGGCCAG	-0.107
ACTGCAGT	0.0567

Nothing new here: an excerpt of the list.
Sequence	PBM E-score
CAGAATAC	0.173
AAATCTCA	0.142
CTGCGAAC	-0.138
GTTAGGTA	0.194
ATATCGTA	0.128
AAGGACAG	0.00055
ACAGGAGG	-0.217
GCGACGGA	0.0769
ATAGAGCC	-0.12
AATGGAGG	-0.119
AGATATAC	0.0965
GTCTTCAC	-0.11
CTATCAAG	0.067
GGGGCCTA	-0.368
ACAACTAC	0.0726
GTAGTAAA	0.0955
ATCCGCAG	0.147
CGCTATAG	-0.0258
GCACGTAA	0.0393
ACATAATG	0.211
ATAATTAC	0.333
ACGATAAT	0.184
GTCTTCCA	-0.108
ATGTCCGG	-0.133
AGAAACGC	-0.12
AAGGATAA	0.0694
ACCGGCTA	-0.0839
GCTTGACC	-0.0702
GGAAGCGA	-0.0648
AAAGGAGA	-0.055
CCAAGGTA	-0.132
GGCAGGTA	-0.158
CCATGCCG	0.0611
ATATTAGA	0.175
GTGTTAAA	0.0872
AAAGACTC	-0.0985
AAGGATCT	-0.109
CCGGAACG	0.0101
AGCAGGAA	0.059
